Source: PubChem BioAssay AID2685 (National Center for Advancing Translational Sciences (NCATS), 2010)
This is one part of the list. The main result of the screen is listed elsewhere. These columns were measured beside it and carry no call. Compounds called inactive in the main read-out are mostly missing here. Words in brackets tell the shape of the fitted curve; partial curves, single points and poor fits give uncertain potencies.

Experiment: qHTS Assay for Lipid Storage Modulators in Drosophila S3 Cells;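 for cell number change: cells counted by Cell Tracker Red CMTPX staining in the red channel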
Conditions: BODIPY lipid droplet fluorescence, 18-24 h; for cell number change: measured here: cell count max response, cells fed with added oleic acid
Method in brief: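 Laser-scanning cytometry quantifies lipid droplet accumulation (500–530 nm total intensity; droplet/cell object ratio) in oleic acid-fed (400 uM added) Drosophila S3 cells treated with a concentration series. 20 uM Triacsin C defined 100% inhibition.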

[1] = measured here: lipid fluorescence (Fed channel) AC50, cells fed with added oleic acid
[2] = measured here: cell number channel AC50, cells fed with added oleic acid

| Structure (SMILES) | cell number change | AC50 [1] | AC50 [2] |
| --- | --- | --- | --- |
| Cc1cccc(NC(=O)/C(C#N)=C/c2ccc(Sc3ccccc3)o2)c1C | 11% | 3.26 µM [falling, single point] | – |
| COc1cc(CO)ccc1Oc1nnnn1-c1ccc(C(N)=O)cc1 | -4.65% | 0.0326 µM [falling, full curve, poor fit] | – |
| CCOC(=O)c1c(C2COc3ccccc3O2)csc1NC(=O)c1ccccc1 (stereo unspecified) | 87.5% | 2.31 µM [rising, partial curve] | 0.411 µM [rising, partial curve, poor fit] |
| COc1ccc(OC)c(/C=C2\NC(=O)NC2=O)c1 | -14.9% | 6.51 µM [rising, partial curve, poor fit] | – |
| CC1=[N+](CC(=O)c2ccccc2)CCn2cccc21 | -2.44% | – | 0.651 µM [falling, full curve, poor fit] |
| C=CCn1c(SCC(=O)N(C)C)nc2sc3c(c2c1=O)CCC3 | 1.83% | 0.517 µM [falling, single point] | – |
| COc1ccc(-c2nnc(SC(C)C(=O)Nc3c(C)n(C)n(-c4ccccc4)c3=O)o2)cc1 (stereo unspecified) | -25% | 14.6 µM [falling, single point] | – |
| Cc1ccc(/C=C/C(=O)NN2CCN(C)CC2)cc1 | 14.7% | 29.1 µM [rising, single point] | – |
| CS(=O)(=O)Nc1ccc(C(=O)NCc2cccnc2)cc1 | -7.34% | 29.1 µM [falling, single point] | – |
| Oc1ccc(O)c(Cc2nc3ccccc3[nH]2)c1 | 1.88% | – | 6.51 µM [falling, single point] |
| CC(=O)NCCc1nc2cc(NC(=O)c3ccc(F)cc3)ccc2n1C | 2.84% | – | – |
| CC1=C2C(CCS2(=O)=O)CC2(C1)C(=O)OC(C)(C)OC2=O (stereo unspecified) | -36.6% | 0.731 µM [falling, full curve] | 0.731 µM [falling, full curve] |
| COc1cccc2cc(/C(C)=N/NC(=O)c3ccco3)oc12 | -25.7% | 0.651 µM [falling, full curve] | – |
| Cc1ccc(NC(=O)c2ccc(F)cc2)cc1S(=O)(=O)N1CCCCCC1 | 4.24% | 4.11 µM [rising, single point] | 6.51 µM [rising, partial curve, poor fit] |
| C=Cc1cccc(NC(=O)c2ccc(NC(=O)c3ccco3)cc2)c1 | -19.8% | 6.51 µM [falling, single point] | 4.11 µM [falling, single point] |
| Cc1sc(NC(=O)CSc2ncn(-c3ccccc3)n2)nc1-c1ccccc1 | -31.9% | 29.1 µM [falling, single point] | 29.1 µM [falling, single point] |
| NC(=O)c1ccsc1NC(=O)COC(=O)C1=NNC(=O)CC1 | 21.2% | 5.8 µM [falling, partial curve] | 0.082 µM [rising, full curve] |
| O=C(CN1C(=O)NC2(CCCC2)C1=O)OCc1cccc(Br)c1 | 11.1% | 29.1 µM [falling, single point] | 0.146 µM [falling, full curve, poor fit] |
| CS(=O)(=O)c1ccc(C(=O)NCCN2C(=O)S/C(=C\c3cccnc3)C2=O)cc1[N+](=O)[O-] | -22.8% | 0.092 µM [falling, full curve] | 0.116 µM [falling, full curve, poor fit] |
| O=C(Nc1ccccc1)C1CC2CCCC(C1)C2=O (stereo unspecified) | -19% | 29.1 µM [falling, single point] | – |

| Structure (SMILES) | cell number change | AC50 [1] | AC50 [2] |
| --- | --- | --- | --- |
| CCCCCCC(=O)N=Nc1c(O)[nH]c2ccc([N+](=O)[O-])cc12 | 11.5% | 18.4 µM [rising, single point] | – |
| CCN(CC)C(=O)CN1CCC(c2nc3cc(C)c(C)cc3[nH]2)CC1 | 22.3% | 3.26 µM [falling, single point] | – |
| COc1cc(N)c(Cl)cc1C(=O)OCC(=O)NC1CCCC1 | -10.8% | – | – |
| CCOC(=O)c1c(NC(=O)C(C)Sc2cccc[n+]2[O-])sc2c1CCN(Cc1ccccc1)C2 (stereo unspecified) | -11.2% | 32.6 µM [falling, single point] | – |
| O=C(Nc1ccc2c(c1)OCCO2)C1CCCN1S(=O)(=O)c1ccc(Cl)cc1 (stereo unspecified) | 13.9% | 6.51 µM [rising, single point] | – |
| CCC(=O)NCCn1ccc2ccccc21 | – | 1.3 µM [falling, partial curve] | 0.0259 µM [falling, full curve, poor fit] |
| Cc1cc(SCC(=O)NCCCN2CCCC2=O)nc2ccccc12 | -6.95% | 6.51 µM [rising, single point] | – |
| Cc1ccc(S(=O)(=O)NCC2CCCO2)cc1 (stereo unspecified) | 18.9% | 29.1 µM [rising, single point] | – |
| COc1ccc(CCNc2ncnc3c2nnn3Cc2ccccc2)cc1 | -5.87% | – | – |
| CCN(CC)S(=O)(=O)c1ccc(N2CCOCC2)c(NC(=O)CC2OC(=O)c3ccccc32)c1 (stereo unspecified) | -9.45% | 11.6 µM [falling, partial curve] | – |
| O=C(CCC(=O)N1CCOc2ccccc21)NCCCN1CCOCC1 | 18.7% | – | – |
| O=C(CCNS(=O)(=O)c1c(Cl)cccc1Cl)OCC(=O)c1ccccc1F | – | – | 6.51 µM [rising, partial curve] |
| Cc1ccc(C(=O)NCC(=O)Nc2ccc(C)c(S(=O)(=O)Nc3ccc(Cl)cc3)c2)s1 | 28.9% | 3.26 µM [rising, full curve] | – |
| CCOc1ccc2[nH]c(=O)c(CN(Cc3ccco3)C(=O)c3ccc(Br)cc3)cc2c1 | -40.9% | 32.6 µM [falling, single point] | 18.4 µM [falling, single point] |
| CCc1ccc(N2CC(C(=O)OCC(=O)Nc3cc(C)on3)CC2=O)cc1 (stereo unspecified) | -24.1% | 0.164 µM [falling, full curve] | 0.0461 µM [falling, full curve, poor fit] |
| Cc1ccn2cc(C34CC5CC(CC(C5)C3)C4)nc2c1 | – | 0.13 µM [rising, full curve, poor fit] | – |
| CC1CCN(C(=O)CSc2nc(C(C)C)nc3c2c(=O)n(C)c(=O)n3C)CC1 | -51.8% | 0.366 µM [falling, full curve] | 1.16 µM [falling, full curve] |
| c1coc(CNc2nc3ccccc3n2CCN2CCOCC2)c1 | 14.7% | 7.31 µM [rising, partial curve] | – |
| CCOc1ccccc1-n1c(C)cc(C=O)c1C | 96.6% | – | 18.4 µM [rising, single point] |
| CC1NC(=S)N(C2CCCCC2)C1=O (stereo unspecified) | -36.4% | 5.8 µM [falling, full curve] | 1.16 µM [falling, full curve] |

Reformatted tab-delimited: part of the list above
Structure (SMILES)	cell number change	AC50 [1]	AC50 [2]
COc1cc(N)c(Cl)cc1C(=O)OCC(=O)NC1CCCC1	-10.8%	–	–
CCOC(=O)c1c(NC(=O)C(C)Sc2cccc[n+]2[O-])sc2c1CCN(Cc1ccccc1)C2 (stereo unspecified)	-11.2%	32.6 µM [falling, single point]	–

The results go on.

| Structure (SMILES) | cell number change | AC50 [1] | AC50 [2] |
| --- | --- | --- | --- |
| Cc1cccc(C(=O)NCc2ccc(S(N)(=O)=O)cc2)c1[N+](=O)[O-] | 12.7% | – | – |
| COCCOC(=O)C1=C(C)NC(=O)NC1c1c(Cl)nc2c(C)cccn2c1=O (stereo unspecified) | 6.32% | 1.84 µM [rising, full curve, poor fit] | – |
| CC1=C(C)C(=O)N(C(C)CCc2ccccc2)C1=O (stereo unspecified) | -0.275% | 29.1 µM [rising, single point] | – |
| CN(CC(=O)Nc1ccc(N2CCOCC2)cc1)C(=O)C1CCCC1 | -34.9% | 25.9 µM [falling, single point] | 25.9 µM [falling, single point] |
| CCCc1nc2ccccc2[nH]1 | -6.84% | – | – |
| Cc1ccc(NC(=O)c2ccc(CSc3ccccn3)cc2)c(O)c1 | -2.38% | 3.66 µM [falling, partial curve, poor fit] | 3.26 µM [falling, partial curve] |
| O=C(O)c1cc(S(=O)(=O)N2CCN(c3ccccn3)CC2)ccc1Cl | -45.3% | – | – |
| O=C1NCCN1CCNS(=O)(=O)c1ccc(F)cc1 | -17.2% | – | 0.517 µM [falling, partial curve] |
| CC(=O)NC(Cc1ccccc1)c1ccc2c(c1)OCCCO2 (stereo unspecified) | 138% | 25.9 µM [rising, single point] | 29.1 µM [rising, single point] |
| Cc1nn(-c2ccccc2)c(C)c1-c1nnc(C(F)(F)F)o1 | 35.2% | 29.1 µM [rising, single point] | 13 µM [rising, partial curve] |
| N#Cc1c(N2CCCC2)nsc1-c1ccccc1 | 14.8% | 3.66 µM [rising, full curve] | – |
| COC(=O)c1ccc(NC(=O)c2cccc(OC)c2)cc1 | -9.08% | – | – |
| CC[C@H](C)[C@@H](CNC)NC[C@@H](Cc1ccc(O)cc1)NCC(C)(C)C | – | 29.1 µM [rising, single point] | – |
| C=CCN1C(=O)c2ccc(C(=O)OCC(=O)N(CC)C3CCS(=O)(=O)C3)cc2C1=O (stereo unspecified) | 14.5% | – | – |
| CCN(CC(=O)Nc1c(F)cccc1F)C(=O)c1ccc(-n2cncn2)c([N+](=O)[O-])c1 | 17.6% | 5.8 µM [rising, partial curve] | – |
| COc1ccc(C(=O)NCCSCc2ccc(Cl)cc2)cc1OC | -7.87% | 20.6 µM [falling, single point] | – |
| Cc1ccc(/C(N)=N/OC(=O)c2ccc3c(c2)OCO3)cc1 | -15% | 8.2 µM [rising, partial curve, poor fit] | – |
| CCOC(=O)c1ccc(NC(=O)NC2CC3CCC(C2)N3Cc2nnnn2C(C)(C)C)cc1 (stereo unspecified) | 3.12% | – | – |
| COc1ccccc1C(=O)CN1C(=O)NC2(CCc3ccccc32)C1=O (stereo unspecified) | -0.64% | 29.1 µM [rising, partial curve, poor fit] | – |

Filtered by structure: those above with a cyano group

| Structure (SMILES) | cell number change | AC50 [1] | AC50 [2] |
| --- | --- | --- | --- |
| Cc1cccc(NC(=O)/C(C#N)=C/c2ccc(Sc3ccccc3)o2)c1C | 11% | 3.26 µM [falling, single point] | – |
| N#Cc1c(N2CCCC2)nsc1-c1ccccc1 | 14.8% | 3.66 µM [rising, full curve] | – |
